These are yes or no findings as the source states them, for the method shown. Some binding calls cover weakened binding; strength is not graded here. For some assays here: Sequences can lack the tags named with a protein.
Columns and labels:
[1] = target: T1, mouse EphB2 polypeptide (mouse) (UniProt P54763); assay: direct ELISA on coated EphB2
T1 sequence (looked up): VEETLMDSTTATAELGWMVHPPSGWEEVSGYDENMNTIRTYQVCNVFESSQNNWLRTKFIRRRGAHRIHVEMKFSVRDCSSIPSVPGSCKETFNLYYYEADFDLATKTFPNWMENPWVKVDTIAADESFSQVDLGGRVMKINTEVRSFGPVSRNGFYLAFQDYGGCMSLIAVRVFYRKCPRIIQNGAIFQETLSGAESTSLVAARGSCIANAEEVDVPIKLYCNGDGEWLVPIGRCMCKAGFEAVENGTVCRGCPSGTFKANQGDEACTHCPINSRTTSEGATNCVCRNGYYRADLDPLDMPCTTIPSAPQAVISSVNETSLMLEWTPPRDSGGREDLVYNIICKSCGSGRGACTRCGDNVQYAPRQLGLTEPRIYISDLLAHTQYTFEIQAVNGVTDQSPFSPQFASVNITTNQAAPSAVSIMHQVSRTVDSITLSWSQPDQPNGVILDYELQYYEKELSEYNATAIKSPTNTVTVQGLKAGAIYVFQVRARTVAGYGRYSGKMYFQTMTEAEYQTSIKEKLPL

[2] = target: T2, polyhis-tagged human EphB2 (baculovirus-derived His8-tagged EphB2 receptor) (human) (UniProt P29323); assay: direct ELISA on coated EphB2
T2 sequence (looked up): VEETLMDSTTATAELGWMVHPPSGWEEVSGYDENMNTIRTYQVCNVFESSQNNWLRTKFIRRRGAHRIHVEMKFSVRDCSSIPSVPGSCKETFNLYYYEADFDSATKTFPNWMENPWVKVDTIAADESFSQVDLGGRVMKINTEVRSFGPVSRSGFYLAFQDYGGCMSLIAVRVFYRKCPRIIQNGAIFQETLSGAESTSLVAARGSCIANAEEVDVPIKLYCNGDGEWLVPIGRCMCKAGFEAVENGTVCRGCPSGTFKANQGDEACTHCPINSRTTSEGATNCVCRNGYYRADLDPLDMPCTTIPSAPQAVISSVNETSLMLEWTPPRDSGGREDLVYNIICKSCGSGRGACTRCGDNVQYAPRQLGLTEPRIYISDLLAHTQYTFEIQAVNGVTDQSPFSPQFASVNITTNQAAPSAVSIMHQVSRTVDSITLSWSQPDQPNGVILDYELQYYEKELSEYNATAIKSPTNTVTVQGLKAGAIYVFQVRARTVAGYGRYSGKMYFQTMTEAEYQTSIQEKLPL

[3] = target: T3, EphB2 ligand binding domain construct ss.EphB2LBD.gD.GPI (amino acids 19 to 208 of human EphB2) on transiently transfected 293 cells (human) (UniProt P29323); assay: FACS on ss.EphB2LBD.gD.GPI-293 cells
T3 sequence (chain, COOH-terminal GPI linker): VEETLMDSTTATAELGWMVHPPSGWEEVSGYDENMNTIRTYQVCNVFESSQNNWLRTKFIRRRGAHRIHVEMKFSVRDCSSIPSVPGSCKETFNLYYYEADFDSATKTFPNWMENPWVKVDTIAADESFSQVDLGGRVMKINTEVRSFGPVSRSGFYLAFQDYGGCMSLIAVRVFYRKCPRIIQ

[4] = target: endogenous human EphB2 on cells or tissue (HT1080-GD vector control cells, colorectal cancer cell lines, colon adenocarcinoma sections) (human) (UniProt P29323); assay: flow cytometry on HT1080-GD cells
[5] = target: NH2-terminal GD epitope-tagged human EphB2 overexpressed on cells (HT1080-EphB2, SVT2-EphB2) (human) (UniProt P29323); assay: flow cytometry on HT1080-EphB2 cells
[6] = target: T3, EphB2 ligand binding domain construct ss.EphB2LBD.gD.GPI (amino acids 19 to 208 of human EphB2) on transiently transfected 293 cells (human); assay: FACS on ss.EphB2LBD.gD.GPI-293 cells, Mab 2H9 at 1 µg/ml
[7] = target: NH2-terminal GD epitope-tagged human EphB2 overexpressed on cells (HT1080-EphB2, SVT2-EphB2) (human) (UniProt P29323); assay: immunofluorescence and 125I-antibody uptake on HT1080-EphB2 cells
[8] = target: endogenous human EphB2 on cells or tissue (HT1080-GD vector control cells, colorectal cancer cell lines, colon adenocarcinoma sections) (human) (UniProt P29323); assay: immunohistochemistry on frozen human colon adenocarcinoma sections
[9] = target: endogenous human EphB2 on cells or tissue (HT1080-GD vector control cells, colorectal cancer cell lines, colon adenocarcinoma sections) (human) (UniProt P29323); assay: reactivity against colorectal cancer cell lines that endogenously express EphB2
[10] = target: NH2-terminal GD epitope-tagged human EphB2 overexpressed on cells (HT1080-EphB2, SVT2-EphB2) (human) (UniProt P29323); assay: reactivity against cell lines engineered to overexpress the receptor (HT-1080EphB2 and SVT2EphB2)
[11] = target: endogenous human EphB2 on cells or tissue (HT1080-GD vector control cells, colorectal cancer cell lines, colon adenocarcinoma sections) (human) (UniProt P29323); assay: saturation binding on HT1080-GD cells, HRP-conjugated secondary antibody, absorbance at 450 nm
[12] = target: NH2-terminal GD epitope-tagged human EphB2 overexpressed on cells (HT1080-EphB2, SVT2-EphB2) (human) (UniProt P29323); assay: saturation binding on HT1080-EphB2 cells, HRP-conjugated secondary antibody, absorbance at 450 nm
[13] = target: NH2-terminal GD epitope-tagged human EphB2 overexpressed on cells (HT1080-EphB2, SVT2-EphB2) (human) (UniProt P29323); assay: flow cytometry competition on HT1080 cells overexpressing EphB2; blocked ligand Fc-EphrinB1, detected with FITC-anti-huFc; incubations on ice
[14] = target: NH2-terminal GD epitope-tagged human EphB2 overexpressed on cells (HT1080-EphB2, SVT2-EphB2) (human) (UniProt P29323); assay: immunofluorescence of HT1080-EphB2 cells incubated with MAb 2H9 on ice, kept on ice or shifted to 37°C for 1 h, fixed and stained with secondary antibody

Measured: binding

B1: anti-EphB2 monoclonal antibody produced by hybridoma cell line 2H9.11.14 (ATCC PTA-6606) (antibody, IgG1, V domains shown)
VH: QVQLQQSGAELAKPGASVKMSCKASGYTFTSYWMHWVKQRPGQGLEWIGFINPSTGYTDYNQKFKDKATLTVKSSNTAYMQLSRLTSEDSAVYYCTRRLKLLRYAMDYWGQGTTLTVSA
VL: DIVMTQSPSSLSVSAGEKVTMNCKSSQSLLNSGNQENYLAWYQQKPGQPPKLLIYGASTRESGVPDRFTGSGSGTDFTLTISSVQAEDLAVYYCQNDHSYPFTFGAGTKVEIKR
notes: 125I-labelled in the Scatchard and uptake assays; also called Mab 2H9; MAb 2H9
binds: [1] | [2] | [3] | [4] | [5] | [6] | [7] | [8] | [9] | [10] | [11] | [12] | [13] | [14]

Reference: US20080254024A1 (Genentech, published 2008)
